{"source": "patent US6562331B1", "about": "“Mating disruption methods for the control of insect pests” (Shin-Etsu Chemical Co., Ltd., priority 1999, dated 2003)", "key": {"[1]": {"experiment": "Sex pheromone released in a desiccator over dried soil with or without covering film, collected in hexane, gas chromatography", "conditions": "for Analytical values (amount collected from desiccator air): collected about 4 hours", "experimental": "Using a desiccator having a diameter of 22 cm and a height of 20 cm and provided with two threaded openings at the top and in the sidewall, soil which had been dried by heating at 110° C. for 2 hours was charged thereinto to a depth of 7 cm as measured from the bottom of the desiccator. The surface of the soil and the inner surfaces surrounding the upper space of the desiccator were covered with a film of a saponification product of ethylene-vinyl acetate copolymer (trade name: Vinylon np, manufactured by Aicello Chemical Co., Ltd.). In this desiccator, a sustained release sex pheromone preparation comprising a plastic container (polyethylene tube) measuring 1.07 mm in inner diameter, 1.73 mm in outer diameter, and 200 mm in length, and having sealed therein a sex pheromone mixture (120 g) composed of 5 parts by weight of Z11-tetradecenal (Z11-16:Ald) and 5 parts by weight of Z11-tetradecenyl acetate (Z11-16:Ac) was broken in two and placed on the soil with the aid of a support. Then, a 250 ml collection bottle containing 200 ml of hexane was connected to the upper opening of the desiccator by means of a teflon tube, and a suction pump was further connected to the collection bottle. Thus, Z11-tetradecenal and Z11-tetradecenyl acetate released in the desiccator were collected for about 4 hours, and the amounts thereof were measured.\nThe measurement was made by subjecting the collecting hexane solution to gas chromatography and determining the pheromones according to the internal standard method.\nAccording to the same procedure as described in Example 4, soil which had been dried by heating at 110° C. for 2 hours was charged into a desiccator, and a sustained release sex pheromone preparation comprising a plastic container having 5 parts by weight of Z11-tetradecenal and 5 parts by weight of Z11-tetradecenyl acetate sealed therein was placed thereon with the aid of a support. Using the same solvent as used in Example 4, Z11-tetradecenal and Z11-tetradecenyl acetate released in the desiccator were collected for the same time and determined."}, "[2]": {"experiment": "Sex pheromone concentration in the air of a treated paddy field (filled with water or drained), activated carbon collection, gas chromatography", "conditions": "for Analytical values (concentration in the air): 50 cm above the ground, 8 hours collection at night", "source_text": "Sustained release sex pheromone preparations were made by mixing 7 parts by weight of a rice stem borer (Chilo Suppressalis) sex pheromone fluid (composed of 77 parts by weight of Z11-hexadecenal (Z11-16:Ald), 8 parts by weight of Z9-hexadecenal (Z9-16:Ald), and 15 parts by weight of Z13-octadecenal (Z13-18:Ald)) with 3 parts by weight of n-tetradecenyl acetate (n-14:Ac) to form a sex pheromone-containing mixture, and sealing this mixture in plastic containers (polyethylene tubes) measuring 1.40 mm in inner diameter, 2.60 mm in outer diameter, and 200 mm in length.\nIn a 10 hectare paddy field (in Tatebayashi City, Gunma Prefecture, Japan) filled with water, sticks having the aforesaid sex pheromone preparations attached thereto were uniformly installed at a density of 250 sticks per 10 ares. Using this sex pheromone-treated field, the concentrations of Z11-hexadecenal and n-tetradecenyl acetate in the air were determined.\nSpecifically, a pole was set up at the center of this sex pheromone-treated field, and an absorption tube packed with 100 g of fibrous activated carbon was attached thereto at a height of 50 cm above the ground. Moreover, a suction pump was connected to the absorption tube, and suction was carried out for a period of 8 hours extending from 8 o'clock in the evening to 4 o'clock in the next morning to collect the sex pheromones present in the air. After collection, the activated carbon was extracted with n-hexane, and the extract was analyzed by gas chromatography. Thus, the concentrations of Z11-hexadecenal and n-tetradecenyl acetate in the air were determined.\nSimilarly to Example 3, sustained release sex pheromone preparations were made by mixing 7 parts by weight of a rice stem borer sex pheromone fluid [composed of 77 parts by weight of Z11-hexadecenal, 8 parts by weight of Z9-hexadecenal, and 15 parts by weight of Z13-octadecenal] with 3 parts by weight of n-tetradecenyl acetate (n-14:Ac) to form a sex pheromone-containing mixture, and sealing this mixture in plastic containers.\nThereafter, the same procedure as described in Example 3 was repeated, except that a 10 hectare paddy field (in Tatebayashi City, Gunma Prefecture, Japan) which had been completely drained off was used for the sex pheromone-treated field. Using this sex pheromone-treated field, the concentrations of Z11-hexadecenal and n-tetradecenyl acetate in the air were determined."}, "[3]": {"conditions": "Comparative Example 3: dried soil, no covering film"}, "[4]": {"conditions": "Example 4: dried soil and inner surfaces covered with film of saponification product of ethylene-vinyl acetate copolymer"}, "[5]": {"conditions": "Comparative Example 2: paddy field completely drained off"}, "[6]": {"conditions": "Example 3: paddy field filled with water"}}, "data": [{"molecule": "CC/C=C\\CCCCCCCCCC=O", "note": "[Z11-tetradecenal]", "values": [{"measurement": "Weight ratio Aldehyde/acetate", "setting": "[1]; [3]", "result": 1.1}, {"measurement": "Analytical values (amount collected from desiccator air)", "setting": "[1]; [3]", "result": 10, "unit": "µg"}, {"measurement": "Weight ratio Aldehyde/acetate", "setting": "[1]; Example 4: dried soil and inner surfaces covered with film", "result": 3.3}, {"measurement": "Analytical values (amount collected from desiccator air)", "setting": "[1]; [4]", "result": 26, "unit": "µg"}]}, {"molecule": "CCCC/C=C\\CCCCCCCCCC=O", "note": "[Z11-hexadecenal]", "values": [{"measurement": "Weight ratio Aldehyde/acetate", "setting": "[2]; [5]", "result": 3.8}, {"measurement": "Analytical values (concentration in the air)", "setting": "[2]; [5]", "result": 15, "unit": "ng/m^3"}, {"measurement": "Weight ratio Aldehyde/acetate", "setting": "[2]; [6]", "result": 7.2}, {"measurement": "Analytical values (concentration in the air)", "setting": "[2]; [6]", "result": 36, "unit": "ng/m^3"}]}, {"molecule": "CC/C=C\\CCCCCCCCCCOC(C)=O", "note": "[Z11-tetradecenyl acetate]", "values": [{"measurement": "Analytical values (amount collected from desiccator air)", "setting": "[1]; [3]", "result": 9, "unit": "µg"}, {"measurement": "Analytical values (amount collected from desiccator air)", "setting": "[1]; [4]", "result": 8, "unit": "µg"}]}, {"molecule": "n-tetradecenyl acetate", "values": [{"measurement": "Analytical values (concentration in the air)", "setting": "[2]; [5]", "result": 4, "unit": "ng/m^3"}, {"measurement": "Analytical values (concentration in the air)", "setting": "[2]; [6]", "result": 5, "unit": "ng/m^3"}]}]}
